Measured values from publication doi:10.1101/2020.12.31.425005 (bioRxiv, 2020).
Like-named read-outs stand apart in the source and are kept apart here. No constants are given. Whether binding was seen depends on the method and setting. Some binding calls cover weakened binding; strength is not graded here. For some of these results: Tags and fused reporters may be left off the sequences shown.

T1: YhcB (E. coli), bacterial two-hybrid fusion (E. coli) (UniProt P0ADW3)
T1 sequence: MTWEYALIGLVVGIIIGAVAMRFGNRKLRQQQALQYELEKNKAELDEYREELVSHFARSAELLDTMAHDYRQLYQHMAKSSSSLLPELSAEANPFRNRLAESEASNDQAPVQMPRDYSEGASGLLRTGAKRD


Experiments:
Test in all cases: two-hybrid
[1] = target: T1, YhcB (E. coli), bacterial two-hybrid fusion (E. coli)
[2] = target: YhcB-v7 (E. coli YhcB lacking the transmembrane region, N-terminal 21 amino acids deleted) (E. coli) (UniProt P0ADW3)
[3] = target: T1, YhcB (E. coli), bacterial two-hybrid fusion (E. coli); remark: listed apart in the source
[4] = target: YhcB-v7 (E. coli YhcB lacking the transmembrane region, N-terminal 21 amino acids deleted) (E. coli) (UniProt P0ADW3); remark: listed apart in the source

Molecule	binding [1]	binding [2]	binding [3]	binding [4]
ZapE (Vibrio cholerae) (from UniProt Q9KUF3 1-367)	binds	–	–	–
FtsQ (E. coli) (from UniProt P06136 1-276)	binds	–	–	–
RodZ (E. coli) (from UniProt P27434 1-337)	binds	no binding	–	–
YciS (E. coli) (protein, UniProt P0ACV4 1-102) MKYLLIFLLVLAIFVISVTLGAQNDQQVTFNYLLAQGEYRISTLLAVLFAAGFAIGWLICGLFWLRVRVSLARAERKIKRLENQLSPATDVAVVPHSSAAKE	–	–	binds	no binding
YidC (E. coli) (protein, UniProt P25714 1-548) MDSQRNLLVIALLFVSFMIWQAWEQDKNPQPQAQQTTQTTTTAAGSAADQGVPASGQGKLISVKTDVLDLTINTRGGDVEQALLPAYPKELNSTQPFQLLETSPQFIYQAQSGLTGRDGPDNPANGPRPLYNVEKDAYVLAEGQNELQVPMTYTDAAGNTFTKTFVLKRGDYAVNVNYNVQNAGEKPLEISSFGQLKQSITLPPHLDTGSSNFALHTFRGAAYSTPDEKYEKYKFDTIADNENLNISSKGGWVAMLQQYFATAWIPHNDGTNNFYTANLGNGIAAIGYKSQPVLVQPGQTGAMNSTLWVGPEIQDKMAAVAPHLDLTVDYGWLWFISQPLFKLLKWIHSFVGNWGFSIIIITFIVRGIMYPLTKAQYTSMAKMRMLQPKIQAMRERLGDDKQRISQEMMALYKAEKVNPLGGCFPLLIQMPIFLALYYMLMGSVELRQAPFALWIHDLSAQDPYYILPILMGVTMFFIQKMSPTTVTDPMQQKIMTFMPVIFTVFFLWFPSGLVLYYIVSNLVTIIQQQLIYRGLEKRGLHSREKKKS	–	–	binds	no binding
RodA (E. coli) (protein, UniProt P0ABG7 1-370) MTDNPNKKTFWDKVHLDPTMLLILLALLVYSALVIWSASGQDIGMMERKIGQIAMGLVIMVVMAQIPPRVYEGWAPYLYIICIILLVAVDAFGAISKGAQRWLDLGIVRFQPSEIAKIAVPLMVARFINRDVCPPSLKNTGIALVLIFMPTLLVAAQPDLGTSILVALSGLFVLFLSGLSWRLIGVAVVLVAAFIPILWFFLMHDYQRQRVMMLLDPESDPLGAGYHIIQSKIAIGSGGLRGKGWLHGTQSQLEFLPERHTDFIFAVLAEELGLVGILILLALYILLIMRGLWIAARAQTTFGRVMAGGLMLILFVYVFVNIGMVSGILPVVGVPLPLVSYGGSALIVLMAGFGIVMSIHTHRKMLSKSV	–	–	binds	–
FtsI (E. coli) (protein, UniProt P0AD68 1-588) MKAAAKTQKPKRQEEHANFISWRFALLCGCILLALAFLLGRVAWLQVISPDMLVKEGDMRSLRVQQVSTSRGMITDRSGRPLAVSVPVKAIWADPKEVHDAGGISVGDRWKALANALNIPLDQLSARINANPKGRFIYLARQVNPDMADYIKKLKLPGIHLREESRRYYPSGEVTAHLIGFTNVDSQGIEGVEKSFDKWLTGQPGERIVRKDRYGRVIEDISSTDSQAAHNLALSIDERLQALVYRELNNAVAFNKAESGSAVLVDVNTGEVLAMANSPSYNPNNLSGTPKEAMRNRTITDVFEPGSTVKPMVVMTALQRGVVRENSVLNTIPYRINGHEIKDVARYSELTLTGVLQKSSNVGVSKLALAMPSSALVDTYSRFGLGKATNLGLVGERSGLYPQKQRWSDIERATFSFGYGLMVTPLQLARVYATIGSYGIYRPLSITKVDPPVPGERVFPESIVRTVVHMMESVALPGGGGVKAAIKGYRIAIKTGTAKKVGPDGRYINKYIAYTAGVAPASQPRFALVVVINDPQAGKYYGGAVSAPVFGAIMGGVLRTMNIEPDALTTGDKNEFVINQGEGTGGRS	–	–	binds	no binding
HemX (E. coli) (protein, UniProt P09127 1-393) MTEQEKTSAVVEETREAVDTTSQPVATEKKSKNNTALILSAVAIAIALAAGIGLYGWGKQQAVNQTATSDALANQLTALQKAQESQKAELEGIIKQQAAQLKQANRQQETLAKQLDEVQQKVATISGSDAKTWLLAQADFLVKLAGRKLWSDQDVTTAAALLKSADASLADMNDPSLITVRRAITDDIASLSAVSQVDYDGIILKLNQLSNQVDNLRLADNDSDGSPMDSDGEELSSSISEWRINLQKSWQNFMDNFITIRRRDDTAVPLLAPNQDIYLRENIRSRLLVAAQAVPRHQEETYRQALENVSTWVRAYYDTDDATTKAFLDEVDQLSQQNISMDLPETLQSQAMLEKLMQTRVRNLLAQPAAGTTEAKPAPAPQADTPAAAPQGE	–	–	binds	–
YhcB (E. coli), bacterial two-hybrid fusion (protein, UniProt P0ADW3 1-132) MTWEYALIGLVVGIIIGAVAMRFGNRKLRQQQALQYELEKNKAELDEYREELVSHFARSAELLDTMAHDYRQLYQHMAKSSSSLLPELSAEANPFRNRLAESEASNDQAPVQMPRDYSEGASGLLRTGAKRD	–	–	no binding	–
